Test results published in US10525115B2 (Immatics Biotechnologies GmbH, priority 2014, dated 2020).

Legend:
Parameters in all cases: species or system human
[1] = tested on: BMNC of healthy donors; experiment: HLA class I ligandome analysis (LC-MS/MS) of healthy donor BMNC; conditions: HLA class I ligandome, 5 BMNC samples; second figure of the cell
[2] = tested on: primary AML samples; experiment: HLA class I ligandome analysis (W6/32 immunoaffinity purification, LC-MS/MS) of primary AML samples; conditions: for Number of positive AMLs: HLA class I ligandome, 15 AML samples
[3] = tested on: cancer tissues in comparison to non-cancerous tissues and organs; experiment: Presentation profile / over-presentation by label-free LC-MS (XPRESIDENT), tumor versus normal tissues, other proliferative diseases; conditions: other proliferative diseases / organs (other than AML) that over- or exclusively present the peptide; Table 5
[4] = tested on: PBMC of healthy donors; experiment: HLA class I ligandome analysis (LC-MS/MS) of healthy donor PBMC; conditions: HLA class I ligandome, 30 PBMC samples; first figure of the cell

Substance: 393 (NADPQAVTM; listed as Homo sapiens) [compound 393]
- Number of positive healthy donors (BMNC) [1]: 0
- Number of positive AMLs [2]: 0
- Proliferative disease and location thereof [3]: lymph node, carcinoma of breast
- Number of positive healthy donors (PBMC) [4]: 5

Substance: 412 (FSMQQRQAL; listed as Homo sapiens) [compound 412]
- Number of positive healthy donors (BMNC) [1]: 0/0
- Number of positive AMLs [2]: 1
- Proliferative disease and location thereof [3]: spleen, chronic myeloid leukemia
- Number of positive healthy donors (PBMC) [4]: 0/0

Substance: 373 (SVASTPISQR; listed as Homo sapiens) [compound 373]
- Number of positive healthy donors (BMNC) [1]: 1
- Number of positive AMLs [2]: 1
- Proliferative disease and location thereof [3]: colon or rectum, rectum, adenocarcinoma
- Number of positive healthy donors (PBMC) [4]: 0

Substance: 409 (ERRESIKQ; listed as Homo sapiens) [compound 409]
- Number of positive healthy donors (BMNC) [1]: 0/0
- Number of positive AMLs [2]: 1
- Proliferative disease and location thereof [3]: spleen, chronic myeloid leukemia
- Number of positive healthy donors (PBMC) [4]: 0/0

Substance: 418 (NVFTNAFRY; listed as Homo sapiens) [compound 418]
- Number of positive healthy donors (BMNC) [1]: 0/0
- Number of positive AMLs [2]: 1
- Proliferative disease and location thereof [3]: spleen, chronic myeloid leukemia
- Number of positive healthy donors (PBMC) [4]: 0/0

Substance: 428 (SAMGSATRY; listed as Homo sapiens) [compound 428]
- Number of positive healthy donors (BMNC) [1]: 0/0
- Number of positive AMLs [2]: 1
- Proliferative disease and location thereof [3]: pancreas, adenocarcinoma, breast, carcinoma
- Number of positive healthy donors (PBMC) [4]: 0/0

Substance: 419 (QPMEPNPRVPL; listed as Homo sapiens) [compound 419]
- Number of positive healthy donors (BMNC) [1]: 0/0
- Number of positive AMLs [2]: 1
- Proliferative disease and location thereof [3]: spleen, chronic myeloid leukemia
- Number of positive healthy donors (PBMC) [4]: 0/0

Substance: 349 (PSKQLPDQI; listed as Homo sapiens) [compound 349]
- Number of positive healthy donors (BMNC) [1]: 1
- Number of positive AMLs [2]: 0
- Proliferative disease and location thereof [3]: lung, non-small cell lung carcinoma, testis, seminoma
- Number of positive healthy donors (PBMC) [4]: 0

Substance: 369 (AELEAARL; listed as Homo sapiens) [compound 369]
- Number of positive healthy donors (BMNC) [1]: 0
- Number of positive AMLs [2]: 0
- Proliferative disease and location thereof [3]: lung, non-small cell lung carcinoma, testis, seminoma
- Number of positive healthy donors (PBMC) [4]: 1

Substance: 439 (ELTLGEFLK; listed as Homo sapiens) [compound 439]
- Number of positive healthy donors (BMNC) [1]: 0
- Number of positive AMLs [2]: 2
- Proliferative disease and location thereof [3]: stomach, metastatic, ovary, Mullerian mixed; tumor
- Number of positive healthy donors (PBMC) [4]: 2

Substance: 410 (ETVGQLGTVLR; listed as Homo sapiens) [compound 410]
- Number of positive healthy donors (BMNC) [1]: 1
- Number of positive AMLs [2]: 1
- Proliferative disease and location thereof [3]: spleen, chronic myeloid leukemia
- Number of positive healthy donors (PBMC) [4]: 0

Substance: 353 (FLDPRPLTV; listed as Homo sapiens) [compound 353]
- Number of positive healthy donors (BMNC) [1]: 1
- Number of positive AMLs [2]: 1
- Proliferative disease and location thereof [3]: pancreas, adenocarcinoma, myometrium, leiomyoma
- Number of positive healthy donors (PBMC) [4]: 6

Substance: 432 (IAFFDVRTF; listed as Homo sapiens) [compound 432]
- Number of positive healthy donors (BMNC) [1]: 0/0
- Number of positive AMLs [2]: 1
- Proliferative disease and location thereof [3]: stomach, metastatic, ovary, granulosa cell tumor
- Number of positive healthy donors (PBMC) [4]: 0/0

Substance: 334 (TPPVVLRL; listed as Homo sapiens) [compound 334]
- Number of positive healthy donors (BMNC) [1]: 0
- Number of positive AMLs [2]: 2
- Proliferative disease and location thereof [3]: stomach, adenocarcinoma, colon, non-Hodgkin's; lymphoma
- Number of positive healthy donors (PBMC) [4]: 6

Substance: 385 (GVFRGIQDV; listed as Homo sapiens) [compound 385]
- Number of positive healthy donors (BMNC) [1]: 0/0
- Number of positive AMLs [2]: 1
- Proliferative disease and location thereof [3]: omentum, adenocarcinoma
- Number of positive healthy donors (PBMC) [4]: 0/0

Substance: 339 (EKDPQPQQL; listed as Homo sapiens) [compound 339]
- Number of positive healthy donors (BMNC) [1]: 0
- Number of positive AMLs [2]: 0
- Proliferative disease and location thereof [3]: lung, non-small cell lung carcinoma, schwannoma
- Number of positive healthy donors (PBMC) [4]: 1

Substance: 406 (DFTPEPAAR; listed as Homo sapiens) [compound 406]
- Number of positive healthy donors (BMNC) [1]: 0/0
- Number of positive AMLs [2]: 2
- Proliferative disease and location thereof [3]: spleen, chronic myeloid leukemia
- Number of positive healthy donors (PBMC) [4]: 0/0

Substance: 400 (REVEIQSHL; listed as Homo sapiens) [compound 400]
- Number of positive healthy donors (BMNC) [1]: 0/0
- Number of positive AMLs [2]: 1
- AML-exclusivity with regard to HLA presentation ([2]; versus PBMC and BMNC of healthy donors): AML-exclusivity
- Proliferative disease and location thereof [3]: stomach, adenocarcinoma, stomach, adenocarcinoma
- Number of positive healthy donors (PBMC) [4]: 0/0

Substance: 354 (SAFADRPAF; listed as Homo sapiens) [compound 354]
- Number of positive healthy donors (BMNC) [1]: 0
- Number of positive AMLs [2]: 0
- Proliferative disease and location thereof [3]: pancreas, adenocarcinoma, myometrium, leiomyoma
- Number of positive healthy donors (PBMC) [4]: 1

Substance: 436 (VDVEQHTL; listed as Homo sapiens) [compound 436]
- Number of positive healthy donors (BMNC) [1]: 0/0
- Number of positive AMLs [2]: 1
- Proliferative disease and location thereof [3]: colon or rectum, colon, adenocarcinoma
- Number of positive healthy donors (PBMC) [4]: 0/0

Substance: 327 (EITPPVVLR; listed as Homo sapiens) [compound 327]
- Number of positive healthy donors (BMNC) [1]: 1
- Number of positive AMLs [2]: 0
- Proliferative disease and location thereof [3]: stomach, adenocarcinoma, colon, non-Hodgkin's; lymphoma
- Number of positive healthy donors (PBMC) [4]: 5

Substance: 416 (LGASNRAFV; listed as Homo sapiens) [compound 416]
- Number of positive healthy donors (BMNC) [1]: 1
- Number of positive AMLs [2]: 0
- Proliferative disease and location thereof [3]: spleen, chronic myeloid leukemia
- Number of positive healthy donors (PBMC) [4]: 0

Substance: 422 (SEEPLARNL; listed as Homo sapiens) [compound 422]
- Number of positive healthy donors (BMNC) [1]: 0/0
- Number of positive AMLs [2]: 1
- Proliferative disease and location thereof [3]: spleen, chronic myeloid leukemia
- Number of positive healthy donors (PBMC) [4]: 0/0

Substance: 429 (AEKQGHQW; listed as Homo sapiens) [compound 429]
- Number of positive healthy donors (BMNC) [1]: 0
- Number of positive AMLs [2]: 0
- Proliferative disease and location thereof [3]: stomach, metastatic, ovary, granulosa cell tumor
- Number of positive healthy donors (PBMC) [4]: 1

Substance: 374 (VASTPISQR; listed as Homo sapiens) [compound 374]
- Number of positive healthy donors (BMNC) [1]: 1
- Number of positive AMLs [2]: 0
- Proliferative disease and location thereof [3]: colon or rectum, rectum, adenocarcinoma
- Number of positive healthy donors (PBMC) [4]: 0

Substance: 371 (ESIDQYIER; listed as Homo sapiens) [compound 371]
- Number of positive healthy donors (BMNC) [1]: 1/1
- Number of positive AMLs [2]: 2
- Proliferative disease and location thereof [3]: colon or rectum, rectum, adenocarcinoma
- Number of positive healthy donors (PBMC) [4]: 1/1

Substance: 413 (GVPFFSSLR; listed as Homo sapiens) [compound 413]
- Number of positive healthy donors (BMNC) [1]: 1
- Number of positive AMLs [2]: 1
- Proliferative disease and location thereof [3]: spleen, chronic myeloid leukemia
- Number of positive healthy donors (PBMC) [4]: 0
